Here are results for one compound from PubChem BioAssay AID514 (SGCOxCompounds, 2006).

The chains behind the UniProt entries cited, without tags or fusion partners. Where a name states a change or a piece, a line headed by the entry shows the natural chain unless it says otherwise.
UniProt Q9H2G2: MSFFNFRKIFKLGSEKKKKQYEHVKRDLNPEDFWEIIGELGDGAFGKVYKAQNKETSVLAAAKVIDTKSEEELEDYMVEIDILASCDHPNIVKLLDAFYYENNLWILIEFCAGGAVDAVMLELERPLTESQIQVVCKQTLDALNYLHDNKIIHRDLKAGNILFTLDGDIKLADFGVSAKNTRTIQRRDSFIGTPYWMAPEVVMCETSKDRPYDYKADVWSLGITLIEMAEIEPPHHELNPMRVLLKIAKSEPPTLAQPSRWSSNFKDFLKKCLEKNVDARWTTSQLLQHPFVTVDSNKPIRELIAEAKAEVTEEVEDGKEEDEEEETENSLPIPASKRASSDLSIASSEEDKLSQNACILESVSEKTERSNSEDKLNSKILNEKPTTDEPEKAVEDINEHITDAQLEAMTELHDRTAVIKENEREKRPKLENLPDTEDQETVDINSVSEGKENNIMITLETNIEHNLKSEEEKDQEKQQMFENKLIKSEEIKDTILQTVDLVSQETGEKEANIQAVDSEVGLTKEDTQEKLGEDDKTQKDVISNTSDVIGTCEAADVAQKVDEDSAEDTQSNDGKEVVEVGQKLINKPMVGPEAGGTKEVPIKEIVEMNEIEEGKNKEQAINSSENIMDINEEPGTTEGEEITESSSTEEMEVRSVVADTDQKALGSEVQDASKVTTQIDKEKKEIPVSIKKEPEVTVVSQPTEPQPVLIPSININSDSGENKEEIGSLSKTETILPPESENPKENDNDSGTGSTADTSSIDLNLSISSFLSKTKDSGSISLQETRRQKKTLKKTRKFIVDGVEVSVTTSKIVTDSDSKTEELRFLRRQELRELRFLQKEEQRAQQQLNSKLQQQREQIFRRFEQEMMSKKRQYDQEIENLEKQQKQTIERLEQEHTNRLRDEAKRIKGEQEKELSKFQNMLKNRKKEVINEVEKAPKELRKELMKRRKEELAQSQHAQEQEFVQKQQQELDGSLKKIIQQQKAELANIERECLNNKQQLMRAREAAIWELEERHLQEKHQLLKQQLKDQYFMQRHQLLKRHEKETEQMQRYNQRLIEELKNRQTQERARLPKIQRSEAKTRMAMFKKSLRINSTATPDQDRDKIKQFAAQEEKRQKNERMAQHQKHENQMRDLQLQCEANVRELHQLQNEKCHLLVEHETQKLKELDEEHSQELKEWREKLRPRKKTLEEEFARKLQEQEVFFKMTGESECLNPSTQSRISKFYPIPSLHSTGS

For this assay, the target named is STE20-like serine/threonine-protein kinase (Homo sapiens) (UniProt Q9H2G2). The experiment in a line: ligand-induced SLK melting temperature shift – biophysical, purified human kinase, DSF (AID 514). The note with it: differential scanning fluorimetry Tm shift, at 10 µM, protein 2 µM, buffer 10 mM HEPES, pH 7.5, NaCl 150 mM, stronger effect = higher value. Background: Differential scanning fluorimetry follows unfolding on heating by fluorescence.

For `CCC(CO)Nc1ccc2ncc(-c3cccc(Cl)c3)n2n1` (stereo unspecified), the Tm shift is 4.4 C.
